{"source": "PubChem BioAssay AID1224826 (NIAID, 2016)", "screen": "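Genes that change LPS-induced Tnf promoter activity in mouse macrophages when knocked down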 (primary screen)", "cells": "RAW264.7 G9 macrophages from mouse bearing reporters for p65 (GFP) and the Tnf promoter (mCherry)", "reagents": "siRNA pool against mouse genes, 100 nM", "timing": "16 h of LPS stimulation, after 2 days of siRNA transfection", "treatment": "bacterial lipopolysaccharide (Salmonella minnesota R595), 10 ng/ml", "read-out": "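Imaged Tnf reporter mCherry in nuclei, minus background, normalised per plate to the median and expressed as robust z-scores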", "direction": "Tnf reporter robust z-score: higher = stronger Tnf promoter reporter signal after LPS", "hit rule": "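Called active when robust z-score is at most -1.3, matching the median of the Tlr4 knock-down control, or over 3; control wells and wells with under 50 cells never active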", "meaning of the calls": "active = Tnf reporter clearly lowered or raised; inactive = no clear change in Tnf reporter", "note": "The deposit covers about 17,000 reagents; shown is a random part of them. In the full data, about 1,110 (6.6%) were called active. 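Active means lowered or raised reporter signal; replicate intensities are raw and not normalised per plate.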 A number with no mark means an inactive call. Not all columns of the deposit are shown."}
{"gene": "Psmd2 (proteasome (prosome, macropain) 26S subunit, non-ATPase, 2)", "Tnf reporter robust z-score": 1.67, "fewer than 50 cells in well": "enough cells in well"}
{"gene": "Apc2 (APC regulator of WNT signaling pathway 2)", "Tnf reporter robust z-score": -0.23, "fewer than 50 cells in well": "enough cells in well"}
{"gene": "Sgk1 (serum/glucocorticoid regulated kinase 1)", "Tnf reporter robust z-score": 1.18, "fewer than 50 cells in well": "enough cells in well"}
{"gene": "Ptpn13 (protein tyrosine phosphatase, non-receptor type 13)", "Tnf reporter robust z-score": "-1.93 (active)", "fewer than 50 cells in well": "enough cells in well"}
{"gene": "Tpk1 (thiamine pyrophosphokinase)", "fewer than 50 cells in well": "fewer than 50 cells per well; well left out of calls"}
{"gene": "Slc39a4", "Tnf reporter robust z-score": 0.12, "fewer than 50 cells in well": "enough cells in well"}
{"gene": "Ass1 (argininosuccinate synthetase 1)", "Tnf reporter robust z-score": 0.08, "fewer than 50 cells in well": "enough cells in well"}
{"gene": "Nsmaf", "Tnf reporter robust z-score": -1.1, "fewer than 50 cells in well": "enough cells in well"}
{"gene": "Pla1a (phospholipase A1 member A)", "Tnf reporter robust z-score": 2.48, "fewer than 50 cells in well": "enough cells in well"}
{"gene": "Cyb5r3 (cytochrome b5 reductase 3)", "Tnf reporter robust z-score": 1.41, "fewer than 50 cells in well": "enough cells in well"}
{"gene": "Inhbc (inhibin beta-C)", "Tnf reporter robust z-score": 0.46, "fewer than 50 cells in well": "enough cells in well"}
{"gene": "Bak1 (BCL2-antagonist/killer 1)", "Tnf reporter robust z-score": -0.35, "fewer than 50 cells in well": "enough cells in well"}
{"gene": "Or13d1 (olfactory receptor family 13 subfamily D member 1)", "Tnf reporter robust z-score": 1.17, "fewer than 50 cells in well": "enough cells in well"}
{"gene": "Eif2b5", "Tnf reporter robust z-score": -0.45, "fewer than 50 cells in well": "enough cells in well"}
